Measurements: patent US20050282745A1, “Non-mammalian GnRH analogs and uses thereof in regulation of fertility and pregnancy” (priority 2001, published 2005)
Some of these results come from one statement about several compounds together. Non-standard residues stand in square brackets, D forms with d. Residues, ends and D or L forms follow the SMILES beside them. pGlu = O=C1CC[C@@H](C(=O)O)N1

Test system: chorionic peptidase-1 (C-ase-1)
Assay: C-ase-1 enzyme activity assay, competition for degradation of GnRH
Details: for relative potency of inhibition of C-ase-1 degradation of GnRH, compared to GnRH: Example V; for fold less active in the inhibition of GnRH degradation by C-ase-1: Example VII

Compound	relative potency of inhibition of C-ase-1 degradation of GnRH, compared to GnRH	fold less active in the inhibition of GnRH degradation by C-ase-1
CCNC(=O)[C@@H]1CCCN1C(=O)[C@H](CCCNC(=N)N)NC(=O)[C@H](CC(C)C)NC(=O)[C@@H](Cc1cn(Cc2ccccc2)cn1)NC(=O)[C@H](Cc1ccc(O)cc1)NC(=O)[C@H](CO)NC(=O)[C@H](Cc1c[nH]c2ccccc12)NC(=O)[C@H](Cc1c[nH]cn1)NC(=O)[C@@H]1CCC(=O)N1 [^6Im-btl-D-His-GnRH^10 ethylamide, des-Gly^10-Im-Btl-D-His^6-GnRH-ethylamide]	< 0.001	greater than 200 fold
CCNC(=O)[C@@H]1CCCN1C(=O)[C@H](Cc1ccc(O)cc1)NC(=O)[C@H](Cc1c[nH]c2ccccc12)NC(=O)CNC(=O)[C@H](Cc1c[nH]cn1)NC(=O)[C@H](CO)NC(=O)[C@H](Cc1c[nH]c2ccccc12)NC(=O)[C@H](Cc1c[nH]cn1)NC(=O)[C@@H]1CCC(=O)N1 [chicken II GnRH ethylamide, chicken II GnRH-^10 ethylamide] ([pGlu]HWSHGWYP-NHEt)	< 0.001	greater than 200 fold
